No constants are given. Whether binding was seen depends on the method and setting. Binding seen in cells or lysates may run through a third protein. Binding can be weak; no strength is given.
Biological target: NTD domain of RBPJ
Experiment: co-IP; full-length and truncated plasmids of TRIM59 and RBPJ transfected into HEK-293T cells; Co-IP

B1: TRIM59, full-length plasmid in HEK-293T cells (protein, UniProt Q8IWR1 1-403)
chain: MHNFEEELTCPICYSIFEDPRVLPCSHTFCRNCLENILQASGNFYIWRPLRIPLKCPNCRSITEIAPTGIESLPVNFALRAIIEKYQQEDHPDIVTCPEHYRQPLNVYCLLDKKLVCGHCLTIGQHHGHPIDDLQSAYLKEKDTPQKLLEQLTDTHWTDLTHLIEKLKEQKSHSEKMIQGDKEAVLQYFKELNDTLEQKKKSFLTALCDVGNLINQEYTPQIERMKEIREQQLELMALTISLQEESPLKFLEKVDDVRQHVQILKQRPLPEVQPVEIYPRVSKILKEEWSRTEIGQIKNVLIPKMKISPKRMSCSWPGKDEKEVEFLKILNIVVVTLISVILMSILFFNQHIITFLSEITLIWFSEASLSVYQSLSNSLHKVKNILCHIFYLLKEFVWKIVSH
- binding: binds

Reference: article PMC11671593
